US20220340649A1 (SENELIX, published 2022)
No constants are given. Whether binding was seen depends on the method and setting. Some results given as binding are weak or reduced against the parent protein; the word gives no strength.

Chains of the proteins cited; added tags and fusions are not shown. Residues count along the entry.
UniProt Q61362, residues 30-389: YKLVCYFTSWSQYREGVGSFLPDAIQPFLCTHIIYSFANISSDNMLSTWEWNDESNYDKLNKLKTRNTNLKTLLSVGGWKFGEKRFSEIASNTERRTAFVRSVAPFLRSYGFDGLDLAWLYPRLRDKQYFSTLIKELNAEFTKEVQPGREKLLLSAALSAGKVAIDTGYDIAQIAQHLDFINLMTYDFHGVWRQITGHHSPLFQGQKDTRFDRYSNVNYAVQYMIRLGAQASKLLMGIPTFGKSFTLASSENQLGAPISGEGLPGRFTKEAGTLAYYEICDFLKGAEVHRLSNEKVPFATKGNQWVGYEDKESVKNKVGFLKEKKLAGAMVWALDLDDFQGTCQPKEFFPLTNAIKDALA

Legend:
mouse YKL-40 (mouse) [1] = target: mouse YKL-40 (mouse) (UniProt Q61362); test: ELISA with the Fab protein
mouse YKL-40 (mouse) [2] = target: mouse YKL-40 (mouse) (UniProt Q61362); test: phage ELISA on immobilized mYKL-40 (30 ng per well), anti-M13-HRP

B1: 4E3-F2 (M3) Fab (Fab, V domains shown)
VH: QVQLVQSGAEVKKPGSSVKVSCKASGGTFSSYDIHWVRQAPGQGLEWMGIISPYLGITIYAQKFQGRVTITADESTSTAYMELSSLRSEDTAVYYCARRYFYYQSEAFDYWGQGTLVTVSS
VL: DIQMTQSPSSLSASVGDRVTITCRASQSISNYLNWYQQKPGKAPKLLIYAASTLQSGVPSRFSGSGSGTDFTLTISSLQPEDFATYYCQQSYSFPLTFGQGTKVEIK
notes: Fab from the Fab-II phage library; also called Fab protein of 4E3-F2 (M3)
B1 was tested, and the binding (mouse YKL-40 (mouse) [1]) was “binds” and the binding (mouse YKL-40 (mouse) [2]) was “binds”.
